According to US20250369123A1, “ALKOXYIMI[…] COMPOSITIONS AND METHODS OF USING THE COMPOSITIONS TO INHIBIT CORROSION” (Ecolab USA Inc., priority 2024, published 2025):

Assay: Wheel box test (NACE ID182), corrosion protection in CO2-saturated brine/oil
Conditions: for % Protection: 80°C, 24 hours, 80% ASTM Seawater brine / 20% LVT-200, CO2 saturated; for % Improvement: improvement of % Protection relative to Control

Molecule | % Protection (inhibitor 10 ppm) | % Protection (inhibitor 25 ppm) | % Protection (inhibitor 50 ppm) | % Improvement (inhibitor 10 ppm) | % Improvement (inhibitor 25 ppm) | % Improvement (inhibitor 50 ppm)
(Z)-2-(heptadec-8-en-1-yl)-1-(2-hydroxyethyl)-4,5-dihydro-1H-imidazol-3-ium gluconate [Control, reference compound] | 26.5% | 43.5% | 50.0% | – | – | –
CCCCCCCC/C=C\CCCCCCCC1=[N+](CC(O)c2ccccc2)CCN1CCO (stereo not drawn) [Composition 2, (Z)-2-(heptadec-8-en-1-yl)-3-(2-hydroxy-2-phenylethyl)-1-(2-hydroxyethyl)-4,5-dihydro-1H-imidazol-3-ium Gluconate] | 45.0% | 65.0% | 79.5% | 70% | 49% | 59%
CCCCCCCC/C=C\CCCCCCCC1=[N+](CC(C)O)CCN1CCO (stereo not drawn) [Composition 1, (Z)-2-(heptadec-8-en-1-yl)-1-(2-hydroxyethyl)-3-(2-hydroxypropyl)-4,5-dihydro-1H-imidazol-3-ium Gluconate] | 33.0% | 63.0% | 73.0% | 24% | 45% | 46%
